PubChem BioAssay AID652272 – Drosophila RNAi Screening Center, 2013
Aim: 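Finding fly genes that regulate Hedgehog signal transduction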 (primary screen). Cell system: Drosophila clone 8 (Cl8) cells. Reagent: long dsRNA against Drosophila genes. Read-out: 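Firefly light from a Hedgehog-responsive ptc promoter reporter and Renilla reference light, both read on a plate reader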. Direction: firefly Hh reporter signal: higher = more ptc reporter light; Renilla reference signal: higher = more Renilla control light. Hit rule: 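Called a hit if the two-replicate mean z-score lies below -2 or above +3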. Calls: active = hit: reporter lowered or raised; inactive = not a hit.
The screen tested about 21,000 reagents; below is an unselected part of those with a known target gene and a result. Of all reagents, 503 (2.4%) got an active call. 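Raw plate light values, not normalised; calls rest on replicate z-scores that were not deposited; hits include reporter decreases as well as increases.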 Entries without a mark were called inactive. A plus sign joins genes that one reagent is predicted to hit. Not stated in the record: the amount of reagent, the time to read-out.

no.	gene	DRSC id	firefly Hh reporter signal, replicate 1	firefly Hh reporter signal, replicate 2	firefly Hh reporter signal, replicate 3	Renilla reference signal, replicate 1	Renilla reference signal, replicate 2
1	CG9400	DRSC20182	1.16e5	79459		2828	1664
2	CG3817	DRSC15515	1.04e5	42608		5075	2573
3	CG42792	DRSC01515	1.22e5	2.71e5		2885	11712
4	CG15423	DRSC00437	1.28e5	69516		3511	5634
5	CG34228	DRSC05300	1.25e5	2.59e5		3235	10065
6	CG15483	DRSC02493	1.21e5	56742		3216	5091
7	CG12020	DRSC08226	64224	37552		2858	2808
8	CG43673 + CG43672	DRSC19452	99068	2.56e5		3222	8445
9	CG43673 + CG43672	DRSC20108	75984	1.96e5		2369	7228
10	Dhpr	DRSC11135	57572	92402		3709	6549
11	alpha-Man-IIb	DRSC16898	87751	85444		3088	3180
12	Cyp6a2	DRSC05014	1.23e5	68774		2891	4774
13	CG16736	DRSC15145	83629	88209		3085	2557
14	Tcs6 + PIG-P	DRSC13742	43849	1.66e5		11413	4628
15	Tcs6 + PIG-P	DRSC14893	5.65e5	1.27e5		28448	3458
16	LS2	DRSC04340	79383	61735		1424	5037
17	Npc2f	DRSC15980	1.54e5	77074		5514	3098
18	Hsc70-1	DRSC11185	47716	33187	23416	2512	514
19	brp	DRSC06245	98074	64227		2560	4632
20	brp	DRSC06246	1.02e5	61208		2627	3984
21	brp	DRSC06801	1.05e5	59387		2673	4897
22	scro	DRSC17099	4.13e5	1.70e5		19448	2884
23	scro	DRSC17102	1.01e5	2.34e5		1789	9424
24	spab	DRSC07112	1.10e5	60662		2886	5824
25	CG31637	DRSC02270	1.27e5	1.04e5		4773	3399
26	CG31637	DRSC03263	61760	18555		1812	2935
27	CG12129	DRSC06105	63216	45628		2903	2048
28	Nup35	DRSC19999	1.26e5	69117		3033	1709
29	CG7366	DRSC10825	7.41e5	1.06e5		4716	4716
30	RhoGAP16F	DRSC20025	91472	63325		2038	1597
31	CG14106	DRSC10109	38000	41337	65873	4066	4709
32	Ipo9	DRSC16813	57159	1.23e5		2081	3168

The list goes on (6 carried over from the part before).
no.	gene	DRSC id	firefly Hh reporter signal, replicate 1	firefly Hh reporter signal, replicate 2	firefly Hh reporter signal, replicate 3	Renilla reference signal, replicate 1	Renilla reference signal, replicate 2
27	CG12129	DRSC06105	63216	45628		2903	2048
28	Nup35	DRSC19999	1.26e5	69117		3033	1709
29	CG7366	DRSC10825	7.41e5	1.06e5		4716	4716
30	RhoGAP16F	DRSC20025	91472	63325		2038	1597
31	CG14106	DRSC10109	38000	41337	65873	4066	4709
32	Ipo9	DRSC16813	57159	1.23e5		2081	3168
33	squ	DRSC01549	1.12e5	2.72e5		3094	11607
34	CG34045	DRSC05787	1.72e5	3.61e5		5212	16386
35	CG10793	DRSC17760	64726	2.15e5		3132	8022
36	Use1	DRSC10180	64594	88588		4176	5960
37	CG8187	DRSC07099	90900	56000		4167	2469
38	Cp110	DRSC20630	1.48e5	1.21e5		3658	3138
39	CG4768	DRSC19917	4.75e5	1.43e5	1.31e5	35304	3362
40	Wdfy2	DRSC02822	88640	67907		3892	3008
41	Pep	DRSC11252	1.05e5	82904		3800	2950
42	cbc	DRSC06957	96626	75408		3245	3766
43	AP-1mu	DRSC14089	1.12e5	73462		4352	2827
44	CG4022	DRSC10395	29440	39227	72794	3728	4648
45	CG13334	DRSC06369	70611	37236		1893	3045
46	Tailor	DRSC12526	78931	93724		3276	2773
47	CG9395	DRSC03218	94394	55082		2213	4707
48	GstZ2	DRSC16479	1.27e5	84685		5175	3218
49	TTLL1A	DRSC20121	81750	95949		1889	2071
50	CG14840	DRSC14964	82112	1.05e5		678	2246
51	CG16972	DRSC02550	1.19e5	87459		4109	2841
52	CG14929	DRSC02411	93123	75320		2864	5856
53	asRNA:CR43477 + CG12256	DRSC14484	61500	1.34e5		2407	3733
54	CG11110	DRSC06037	75093	55440		2871	4098
55	Fur1	DRSC13707	50041	2.41e5		12104	5700
56	Fur1	DRSC16676	74841	1.15e5		1136	2939
57	dec	DRSC18759	1.23e5	3.68e5		5106	14685
